These are yes or no findings as the source states them, for the method shown. In cells and extracts the contact can be indirect. These calls come from enrichment with a bait or labelling near it, and not all partners need be listed. A no says only that the protein was not detected with the bait. Sequences can lack the tags named with a protein.
Molecular target: T1, GFP-AN (ANGUSTIFOLIA fused with GFP, 35S promoter), stable transgenic A. thaliana line (A. thaliana) (UniProt O23702)
T1 sequence: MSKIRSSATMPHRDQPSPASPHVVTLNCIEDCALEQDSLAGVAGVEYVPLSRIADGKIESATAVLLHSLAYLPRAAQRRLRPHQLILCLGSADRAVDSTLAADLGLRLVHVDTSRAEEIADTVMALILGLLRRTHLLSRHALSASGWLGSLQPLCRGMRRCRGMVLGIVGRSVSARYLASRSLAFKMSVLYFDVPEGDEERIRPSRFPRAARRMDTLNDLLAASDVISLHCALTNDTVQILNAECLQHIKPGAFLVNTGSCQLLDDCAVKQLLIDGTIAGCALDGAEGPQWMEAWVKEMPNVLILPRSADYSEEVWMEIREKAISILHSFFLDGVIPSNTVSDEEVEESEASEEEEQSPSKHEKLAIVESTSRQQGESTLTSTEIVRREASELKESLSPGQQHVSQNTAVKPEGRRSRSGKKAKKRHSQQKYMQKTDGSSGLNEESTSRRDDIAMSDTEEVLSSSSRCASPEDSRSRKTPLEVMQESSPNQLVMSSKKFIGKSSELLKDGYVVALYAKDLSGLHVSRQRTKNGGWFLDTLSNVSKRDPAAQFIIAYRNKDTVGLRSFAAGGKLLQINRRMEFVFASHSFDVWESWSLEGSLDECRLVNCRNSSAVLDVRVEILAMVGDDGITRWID
Assay: affinity purification with mass spectrometry; GFP-Trap agarose beads on total protein extract of the 35S::GFP-AN line (rdr6-11 background), 4 °C, 4 h; 25 mM Hepes-KOH pH 7.4, 10 mM MgCl2, 100 mM NaCl, 5 mM NaF, 15% glycerol, 1% Triton X-100; control 35S::GFP line; biological triplicate; LC-MS/MS

By UniProt entry, the sequences of proteins in these tests, tags left out.
UniProt Q9SEX2: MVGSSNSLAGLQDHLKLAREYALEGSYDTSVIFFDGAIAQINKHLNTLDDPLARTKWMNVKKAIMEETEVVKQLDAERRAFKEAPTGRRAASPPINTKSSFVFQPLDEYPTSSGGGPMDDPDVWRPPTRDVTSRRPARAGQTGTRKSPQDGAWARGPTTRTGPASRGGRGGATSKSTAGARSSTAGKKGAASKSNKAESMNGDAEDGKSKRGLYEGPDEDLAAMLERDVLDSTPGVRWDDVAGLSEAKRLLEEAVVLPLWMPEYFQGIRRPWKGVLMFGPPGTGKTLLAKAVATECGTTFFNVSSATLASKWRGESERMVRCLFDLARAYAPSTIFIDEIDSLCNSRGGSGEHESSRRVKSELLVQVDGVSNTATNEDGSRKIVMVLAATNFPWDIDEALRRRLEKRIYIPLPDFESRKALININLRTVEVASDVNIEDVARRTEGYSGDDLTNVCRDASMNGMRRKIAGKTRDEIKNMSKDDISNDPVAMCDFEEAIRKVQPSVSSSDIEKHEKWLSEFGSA

Q: For “KTN1 (katanin p60), endogenous (from UniProt Q9SEX2 1-523) (enzyme)”, which binding is on record?
A: no binding

Reference: article PMC6203401
